# Source: the supplement of paper PMC8728848
# The other results are listed elsewhere or left out.
# B1: PhypaEULS3 (Physcomitrella patens) (protein)
# chain: MLPVRLHCKADPNFNLAAVPGQGPVMVPFSPNDDFQVWYKDVTMSTRVKDETGSSAFSLINKATGQALRHAPEDLAQCLLADYDSNALDQTVLWTMSEDMGQGYCCIRLASQITRNLDVFRGDKKSGGVKEGSPVITFAWKKQDNQIWKMITAILEQKLISEEDLNSAVDHHHHHH
# What was measured:
# Assay in all cases: glycan array binding signal (z-score within array); higher = stronger binding
# Details in all cases: glycan notation: IUPAC condensed, linker removed
# [1] = target: Neu5Ac(a2-3)Gal(b1-4)[Fuc(a1-3)]GlcNAc(b1-3)Gal(b1-4)GlcNAc
# In short: (§1)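 From the Consortium for Functional Glycomics database, 3228 arrays were curated, keeping only those whose protein sequence was available. Binding is given as a within-array Z-score averaged across arrays sharing a protein sequence and across linkers. Negative Z-scores can be read as non-binding.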
# [2] = target: Neu5Ac(a2-3)Gal(b1-4)[Fuc(a1-3)]GlcNAc(b1-3)Gal(b1-4)[Fuc(a1-3)]GlcNAc(b1-3)Gal(b1-4)[Fuc(a1-3)]GlcNAc
# In short: as §1
# [3] = target: Neu5Ac(a2-3)Gal(b1-4)[Fuc(a1-3)]GlcNAc(b1-3)GalNAc
# In short: as §1
# [4] = target: Neu5Ac(a2-3)Gal(b1-4)[Fuc(a1-3)]GlcNAc(b1-6)[Gal(b1-3)]GalNAc
# In short: as §1
# [5] = target: Neu5Ac(a2-3)Gal(b1-4)[Fuc(a1-3)]GlcNAc(b1-6)[Neu5Ac(a2-3)Gal(b1-3)]GalNAc
# In short: as §1
# [6] = target: Neu5Ac(a2-3)Gal(b1-4)[Fuc(a1-3)]GlcNAc6S
# In short: as §1
# [7] = target: Neu5Ac(a2-3)Gal6S(b1-4)GlcNAc
# In short: as §1
# [8] = target: Neu5Ac(a2-3)Gal6S(b1-4)[Fuc(a1-3)]GlcNAc
# In short: as §1
# [9] = target: Neu5Ac(a2-3)GalNAc
# In short: as §1
# [10] = target: Neu5Ac(a2-3)GalNAc(b1-4)GlcNAc
# In short: as §1
# [11] = target: Neu5Ac(a2-3)[GalNAc(b1-4)]Gal(b1-4)Glc
# In short: as §1
# [12] = target: Neu5Ac(a2-3)[GalNAc(b1-4)]Gal(b1-4)GlcNAc
# In short: as §1
# [13] = target: Neu5Ac(a2-3)[GalNAc(b1-4)]Gal(b1-4)GlcNAc(b1-3)GalNAc
# In short: as §1
# [14] = target: Neu5Ac(a2-3)[Neu5Ac(a2-6)]GalNAc
# In short: as §1
# [15] = target: Neu5Ac(a2-6)Gal
# In short: as §1
# [16] = target: Neu5Ac(a2-6)Gal(b1-3)GlcNAc(b1-3)[Gal(b1-4)GlcNAc(b1-6)]Gal(b1-4)Glc
# In short: as §1
# [17] = target: Neu5Ac(a2-6)Gal(b1-4)Glc
# In short: as §1
# [18] = target: Neu5Ac(a2-6)Gal(b1-4)GlcNAc
# In short: as §1
# [19] = target: Neu5Ac(a2-6)Gal(b1-4)GlcNAc(b1-2)Man
# In short: as §1
# [20] = target: Neu5Ac(a2-6)Gal(b1-4)GlcNAc(b1-2)Man(a1-3)Man(b1-4)GlcNAc(b1-4)GlcNAc
# In short: as §1
# [21] = target: Neu5Ac(a2-6)Gal(b1-4)GlcNAc(b1-2)Man(a1-3)[Gal(b1-4)GlcNAc(b1-2)Man(a1-6)]Man(b1-4)GlcNAc(b1-4)GlcNAc
# In short: as §1
# [22] = target: Neu5Ac(a2-6)Gal(b1-4)GlcNAc(b1-2)Man(a1-3)[GlcNAc(b1-2)Man(a1-6)]Man(b1-4)GlcNAc(b1-4)GlcNAc
# In short: as §1
# [23] = target: Neu5Ac(a2-6)Gal(b1-4)GlcNAc(b1-2)Man(a1-3)[GlcNAc(b1-4)][Neu5Ac(a2-6)Gal(b1-4)GlcNAc(b1-2)Man(a1-6)]Man(b1-4)GlcNAc(b1-4)GlcNAc
# In short: as §1
binder,measurement,setting,value
B1,glycan array binding signal (z-score),[1],0.271
same,glycan array binding signal (z-score),[2],-0.844
same,glycan array binding signal (z-score),[3],-0.169
same,glycan array binding signal (z-score),[4],-0.413
same,glycan array binding signal (z-score),[5],-1.52
same,glycan array binding signal (z-score),[6],0.773
same,glycan array binding signal (z-score),[7],0.303
same,glycan array binding signal (z-score),[8],-0.823
same,glycan array binding signal (z-score),[9],-0.098
same,glycan array binding signal (z-score),[10],0.953
same,glycan array binding signal (z-score),[11],-0.823
same,glycan array binding signal (z-score),[12],-0.772
same,glycan array binding signal (z-score),[13],1.57
same,glycan array binding signal (z-score),[14],1.16
same,glycan array binding signal (z-score),[15],-1.6
same,glycan array binding signal (z-score),[16],-1.4
same,glycan array binding signal (z-score),[17],-0.824
same,glycan array binding signal (z-score),[18],0.116
same,glycan array binding signal (z-score),[19],0.666
same,glycan array binding signal (z-score),[20],-1.21
same,glycan array binding signal (z-score),[21],0.533
same,glycan array binding signal (z-score),[22],0.429
same,glycan array binding signal (z-score),[23],-0.107

# Fetched one by one from above (two):
binder,measurement,setting,value
B1,glycan array binding signal (z-score),[5],-1.52
same,glycan array binding signal (z-score),[8],-0.823
